# In PubChem BioAssay AID2685 (National Center for Advancing Translational Sciences (NCATS), 2010):
# The list shows a part of the results. Further columns of the screen follow, without active or inactive calls. Compounds called inactive in the main read-out are mostly missing here. The note in brackets gives the kind of curve behind each potency; many fits are weak.
# Assay: qHTS Assay for Lipid Storage Modulators in Drosophila S3 Cells;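 as to cell number change: cells counted by Cell Tracker Red CMTPX staining in the red channel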
# Details: BODIPY lipid droplet fluorescence, 18-24 h; for cell number change: measured here: cell count max response, cells fed with added oleic acid
# In short: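 Laser-scanning cytometry quantifies lipid droplet accumulation (500–530 nm total intensity; droplet/cell object ratio) in oleic acid-fed (400 uM added) Drosophila S3 cells treated with a concentration series. 20 uM Triacsin C defined 100% inhibition.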
# [1] = measured here: lipid fluorescence (Fed channel) AC50, cells fed with added oleic acid
# [2] = measured here: cell number channel AC50, cells fed with added oleic acid
Compound,cell number change [%],AC50 [1],AC50 [2]
CCN(CC)CCCn1c(=S)[nH]c2ncccc2c1=O,4.56,"23.1 µM [falling, single point]",–
NC(=O)CSc1oc(-c2cccs2)nc1S(=O)(=O)c1ccccc1,118,"9.2 µM [rising, partial curve]","18.4 µM [rising, partial curve]"
O=C1c2ccccc2C(=O)N1CC1CCCO1 (stereo not drawn),–,"0.58 µM [rising, single point]",–
O=C(N/N=C/c1ccccn1)c1[nH]c2ccc([N+](=O)[O-])cc2c1-c1ccccc1,-3.12,"18.4 µM [falling, single point]",–
Cc1ccc(P(=Nc2ccccc2)(N2CCOCC2)N2CCOCC2)o1,-15.3,"0.206 µM [falling, full curve]",–
CC(=O)Nc1nonc1-c1nc2ccccc2n1Cc1nnc(C)o1,-5.88,"6.51 µM [rising, single point]",–
O=C(CSc1ccc(F)cc1)NCCSc1ccccc1,–,"29.1 µM [rising, single point]",–
S=C(Nc1ccc2c(c1)OCCO2)Nc1ccccc1Cl,6.65,–,–
COc1cc(OC)c(C(=O)/C=C/c2ccc(OCc3ccccc3)c(OC)c2)c(OC)c1,34.4,–,"0.116 µM [rising, full curve, poor fit]"
CCOc1ccc(NC(=O)CN(C)C(=O)c2c(-c3ccccc3)noc2C)cc1OCC,-11,"6.51 µM [rising, single point]",–
COC(=O)N/N=C/c1cc(Cl)cc(Cl)c1OCc1ccccc1,10.5,"32.6 µM [rising, single point]",–
O=C(Nc1cccc(Cl)c1)N1CCN(c2ncccn2)CC1,–,–,"3.66 µM [rising, partial curve]"
COc1ccccc1NC(=O)NNC(=O)CCc1ccccc1,29.2,"29.1 µM [rising, single point]",–
O=C1CN(C(=O)CNCc2ccc(Cl)cc2)c2ccccc2N1,–,"0.0517 µM [falling, full curve, poor fit]",–
COCCCNC(=O)CCCn1c(=O)c2ccccc2n(CC(=O)Nc2c(C)cccc2C)c1=O,–,"2.59 µM [rising, partial curve]","2.06 µM [rising, partial curve]"
CCOC(=O)C1CCCN(C(=O)Cn2sc3nc(C)cc(C)c3c2=O)C1 (stereo not drawn),-88.2,"16.4 µM [falling, single point]","25.9 µM [falling, partial curve]"
Cc1cc(C)cc(N(C(=O)c2sc(C)nc2C)C(C(=O)NCc2ccco2)c2ccccc2)c1 (stereo not drawn),-4.29,"18.4 µM [rising, partial curve]",–
Cc1cc(NC(=O)c2ccc(Cn3nc(C)c(Br)c3C)o2)no1,9.53,"3.26 µM [rising, full curve]",–
CCN(Cc1ccncc1)Cc1ccc(OC)c(OC)c1,-10,–,–
CN1C(C(=O)NCC2CC2)CC2Cn3c(nc4ccccc43)C21 (stereo not drawn),18.5,"2.59 µM [falling, partial curve]",–
COCCn1cnc2c1c(=O)n(CC(=O)Nc1cc(C)on1)c(=O)n2Cc1ccccc1,48.4,"29.1 µM [rising, single point]","20.6 µM [rising, partial curve, poor fit]"
O=C(Nc1ccc(N2CCOCC2)cc1)Nc1ccc(Cl)c(Cl)c1,12,–,"0.651 µM [rising, partial curve]"

Compound,cell number change [%],AC50 [1],AC50 [2]
O=C(c1cc(-c2cccc(Cl)c2)on1)N1CCN(c2ccc(F)cc2)CC1,10.8,–,–
O=C(CCc1ccc(S(=O)(=O)NC2CCCCC2)cc1)Nc1ccccc1,25.4,"20.6 µM [rising, partial curve]",–
CCN(CC(=O)Nc1ccc2c(c1)OCCO2)CC(=O)Nc1cc(C)on1,13.4,"13 µM [rising, single point]",–
CCNc1nc(N)c(C(=O)c2ccc(Cl)s2)s1,-22.5,"0.92 µM [rising, full curve]",–
COc1cc(C(=O)N(Cc2ccccn2)CC2CCCO2)cc(OC)c1OC (stereo not drawn),-29.1,–,"0.164 µM [falling, full curve, poor fit]"
NC(=O)C[C@@H]1N[C@]2(C(=O)Nc3ccccc32)[C@@H]2C(=O)N(C3CCCCC3)C(=O)[C@H]12,-3.68,"3.66 µM [falling, full curve, poor fit]","0.092 µM [falling, full curve]"
CCOc1ccc(Nc2oc(Cc3ccccc3)nc2C#N)cc1,71.4,"6.51 µM [rising, single point]","8.2 µM [rising, partial curve]"
CCc1ccc(-c2nc(SCC(=O)N(C)C3CCS(=O)(=O)C3)n[nH]2)cc1 (stereo not drawn),-29.3,–,–
O=C(NCc1cccs1)c1cccnc1SCCS(=O)(=O)c1ccc(C(F)(F)F)cn1,-54.3,"29.1 µM [falling, single point]","1.03 µM [falling, full curve, poor fit]"
COC(=O)CCCCC(=O)OC,-4.52,"29.1 µM [rising, single point]",–
CN(C)CCN(C(=O)CN1C(=O)c2ccccc2C1=O)c1nc2cc3c(cc2s1)OCO3,7.76,"1.16 µM [rising, full curve, poor fit]",–
CCC(=O)NC(=S)Nc1ccc(NC(=O)c2ccc([N+](=O)[O-])cc2)cc1,59.5,"16.4 µM [rising, single point]","9.2 µM [rising, single point]"
CCC(C)(C)C1CCc2[nH]nc(C(=O)NC3CCCC3)c2C1 (stereo not drawn),15.8,"4.61 µM [falling, single point]","2.91 µM [falling, single point]"
COc1cccc(C(=O)/C=C/Nc2ccc(S(=O)(=O)Nc3cc(OC)nc(OC)n3)cc2)c1,3.85,"29.1 µM [rising, partial curve]",–
CS(=O)(=O)N1CCc2cc(C(=O)N3CCN(c4ccccc4F)CC3)ccc21,-12.5,"0.58 µM [falling, single point]",–
CCCCc1ccc(NC(=O)c2c(C)noc2C)cc1,–,"0.58 µM [falling, single point]",–
O=C(c1cc2n(n1)C(C(F)(F)F)CC(c1ccco1)N2)N1CCc2ccccc2C1 (stereo not drawn),-34.3,"6.51 µM [rising, single point]","16.4 µM [falling, single point]"
CCOC(=O)Cc1c(C)c2c(C)nn(-c3ccccc3)c2oc1=O,-19.2,–,–
CCOC(CCn1c(SCc2cccc([N+](=O)[O-])c2)nc2ccccc2c1=O)OCC,8.51,"6.51 µM [rising, single point]",–
Clc1cccc(Cl)c1Cn1cc(Br)cn1,-0.594,–,–
CC1=C(C(=O)Nc2ccccc2C(=O)NCCCN2CCN(C)CC2)SCCO1,16.2,–,–

# Looked up one by one from above:
Compound,cell number change [%],AC50 [1],AC50 [2]
O=C(CCc1ccc(S(=O)(=O)NC2CCCCC2)cc1)Nc1ccccc1,25.4,"20.6 µM [rising, partial curve]",–
CCC(C)(C)C1CCc2[nH]nc(C(=O)NC3CCCC3)c2C1 (stereo not drawn),15.8,"4.61 µM [falling, single point]","2.91 µM [falling, single point]"
